Positions count from the first letter of the chain named. These are yes or no findings as the source states them, for the method shown. For some of these results: Binding seen in cells or lysates may run through a third protein. Some entries that bind do so weakly or less than the wild type. For some of these results: Sequences can lack the tags named with a protein.
Assays:
[1] = target: T1, TANK binding kinase 1 (TBK1; endogenous, mouse bone marrow-derived macrophages) (mouse (endogenous in BMDM)) (UniProt Q9WUN2); experiment: co-IP
T1 sequence: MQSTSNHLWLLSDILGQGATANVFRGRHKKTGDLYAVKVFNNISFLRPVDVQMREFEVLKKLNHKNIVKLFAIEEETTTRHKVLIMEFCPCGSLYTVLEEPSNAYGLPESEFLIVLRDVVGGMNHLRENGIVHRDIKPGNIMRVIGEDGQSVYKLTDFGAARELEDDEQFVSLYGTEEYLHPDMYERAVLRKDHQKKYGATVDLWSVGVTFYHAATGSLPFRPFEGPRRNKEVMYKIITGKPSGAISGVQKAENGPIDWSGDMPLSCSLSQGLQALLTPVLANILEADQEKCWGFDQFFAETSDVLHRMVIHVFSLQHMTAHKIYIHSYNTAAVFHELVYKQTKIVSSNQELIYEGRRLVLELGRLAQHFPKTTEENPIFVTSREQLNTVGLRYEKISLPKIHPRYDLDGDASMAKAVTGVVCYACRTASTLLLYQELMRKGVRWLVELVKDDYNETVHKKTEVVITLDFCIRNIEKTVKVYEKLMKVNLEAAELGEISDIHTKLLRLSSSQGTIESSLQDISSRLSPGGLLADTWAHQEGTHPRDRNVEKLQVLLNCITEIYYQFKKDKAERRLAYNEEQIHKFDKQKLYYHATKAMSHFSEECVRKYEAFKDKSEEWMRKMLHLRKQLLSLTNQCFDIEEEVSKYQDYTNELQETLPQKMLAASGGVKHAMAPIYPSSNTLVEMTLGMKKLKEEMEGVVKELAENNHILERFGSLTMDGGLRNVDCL

[2] = target: T2, protein phosphatase, magnesium-dependent 1A (PPM1A; endogenous, mouse bone marrow-derived macrophages) (mouse (endogenous in BMDM)) (UniProt P49443); experiment: co-IP; endogenous proteins; whole-cell lysates of WT and TRIM18 KO BMDM (resting) incubated 2 h with anti-PPM1A or IgG, protein A/G beads 4 h, immunoblot
T2 sequence: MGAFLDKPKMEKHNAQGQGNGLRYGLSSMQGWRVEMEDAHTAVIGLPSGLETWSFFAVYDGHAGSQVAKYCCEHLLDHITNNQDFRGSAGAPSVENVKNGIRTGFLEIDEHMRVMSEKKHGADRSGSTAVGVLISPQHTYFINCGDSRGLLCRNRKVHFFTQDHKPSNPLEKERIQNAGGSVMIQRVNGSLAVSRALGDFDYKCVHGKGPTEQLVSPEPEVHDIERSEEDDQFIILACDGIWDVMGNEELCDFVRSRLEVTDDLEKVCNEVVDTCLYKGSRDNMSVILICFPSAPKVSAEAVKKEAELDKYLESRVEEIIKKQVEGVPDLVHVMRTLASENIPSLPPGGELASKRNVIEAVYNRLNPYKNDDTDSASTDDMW

[3] = target: T3, Myc-tagged recombinant TRIM18 (UniProt O15344); experiment: co-IP; in vitro: purified HA-tagged protein (full-length or truncation) incubated 2 h with purified Myc-tagged partner, beads added for 2 h, immunoprecipitation with anti-Myc, immunoblot with anti-HA or anti-Myc; both purified
T3 sequence: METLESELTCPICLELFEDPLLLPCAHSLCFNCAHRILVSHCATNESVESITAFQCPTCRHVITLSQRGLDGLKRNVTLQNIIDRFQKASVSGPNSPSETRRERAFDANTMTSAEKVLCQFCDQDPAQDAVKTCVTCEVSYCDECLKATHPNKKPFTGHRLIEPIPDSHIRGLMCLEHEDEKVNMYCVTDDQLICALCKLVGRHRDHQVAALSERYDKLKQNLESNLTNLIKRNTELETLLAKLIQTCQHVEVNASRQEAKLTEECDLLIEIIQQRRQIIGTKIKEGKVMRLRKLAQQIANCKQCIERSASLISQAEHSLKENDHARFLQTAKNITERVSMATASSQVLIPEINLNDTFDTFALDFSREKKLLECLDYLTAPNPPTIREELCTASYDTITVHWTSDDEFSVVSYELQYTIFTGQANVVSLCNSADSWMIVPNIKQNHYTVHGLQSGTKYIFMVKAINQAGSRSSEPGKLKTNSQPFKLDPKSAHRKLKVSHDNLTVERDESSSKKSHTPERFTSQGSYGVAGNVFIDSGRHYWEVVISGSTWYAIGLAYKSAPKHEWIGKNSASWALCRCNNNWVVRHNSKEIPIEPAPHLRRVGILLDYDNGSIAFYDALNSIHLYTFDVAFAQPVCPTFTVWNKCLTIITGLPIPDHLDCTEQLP

[4] = target: T4, Myc-tagged recombinant PPM1A (UniProt P35813); experiment: as above
T4 sequence: T2 sequence with T52S, R86K, S293N, A299P, S314C, V324G, A376T

B1: TRIM18 (endogenous, mouse bone marrow-derived macrophages) (protein, UniProt O70583 1-680)
chain: METLESELTCPICLELFEDPLLLPCAHSLCFNCAHRILVSHCATNEPVESINAFQCPTCRHVITLSQRGLDGLKRNVTLQNIIDRFQKASVSGPNSPSETRRERAFDANTMSSAEKVLCQFCDQDPAQDAVKTCVTCEVSYCDECLKATHPNKKPFTGHRLIEPIPDSHIRGLMCLEHEDEKVNMYCVTDDQLICALCKLVGRHRDHQVAALSERYDKLKQNLESNLTNLIKRNTELETLLAKLIQTCQHVEVNASRQEAKLTEECDLLIEIIQQRRQIIGTKIKEGKVIRLRKLAQQIANCKQCLERSASLISQAEHSLKENDHARFLQTAKNITERVSMATASSQVLIPEINLNDTFDTFALDFSREKKLLECLDYLTAPNPPAIREELCTASYDTITVHWTSEDEFSVVSYELQYTIFTGQANVVNVACDGTCLLGSAGLCNSADSWMIVPNIKQNHYTVHGLQSGTKYIFTVKAINQAGSRSSEPGKLKTNSQPFRLDPKSAHRKLKVSHDNLTVERDESSSKKSHAPERFAGQGSYGVAGNVFIDSGRHYWEVVTSGSTWYAIGLAYRSAPKHEWIGKNAASWALCRCHNHWAVRHDGKETPIAPAPHLRRVGVLLDYDNGSIAFYDALSSVHLHTFHAALAQPVCPTFTVWNKCLTIVTGLPIPDHLDCTEQRP
With B1 the binding [1] was “binds” and the binding [2] was “binds”.

B2: HA-tagged recombinant full-length PPM1A (enzyme, UniProt P35813 1-382)
chain: T2 sequence with T52S, R86K, S293N, A299P, S314C, V324G, A376T
B2 was tested, and the binding [3] was “binds”.

B3: HA-tagged full-length TRIM18 (protein, UniProt O15344 1-667)
chain: T3 sequence
For B3, the binding [4] was “binds”.

Source: PMC9339186
